US20120015925A1, “NOVEL BENZOTHIAZEPINE AND BENZOTHIEPINE COMPOUNDS” (ASAHI KASEI PHARMA CORPORATION, priority 2004, published 2012)

Test system: Caco-2 cells
Conditions: human, Caco-2, 2 h, 25 µM, pH 7.4
Description: The permeability through Caco-2 cells was measured by the same way as in Test Example 15.
It was examined whether the permeability coefficient of the combined compound was changed in the presence of the compound described in Examples or the compound in Comparative Examples.

CC(C)c1c(C(=O)Nc2ccccc2)c(-c2ccccc2)c(-c2ccc(F)cc2)n1CC[C@@H](O)C[C@@H](O)CC(=O)O [ATORVASTATIN]
RATE OF INCREASE (%): 100%
